Data as given in PubChem BioAssay AID720703 (Peter MacCallum Cancer Centre, 2013)
Screen: 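Kinase knock-down screen for links between AT1R and EGFR signalling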 (primary screen). Cell system: immortalised, SV40-transformed mammary epithelial cells from human, with stable expression of tagged AT1R. Knock-down reagent: siRNA pool against human genes, 40 nM siRNA pool per well. Timing: 72 h from transfection to lysis and read-out. Treatment: angiotensin II stimulation (dose and duration not given); EGFR inhibitor AG1478 also listed. Read-out: 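ERK1/2 phosphorylation corrected for confluency, given as a robust z-score, mean over two replicate plates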. Reading the numbers: phospho-ERK z-score: higher = more ERK phosphorylation after angiotensin II, relative to plate. Hit rule: 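The 50 highest-ranked pools, at either end of the score, are marked as chosen for follow-up; the cut-off used is not reported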. Calls: active = picked for secondary screen; inactive = not picked.
This is one part, drawn at random, of 714 reagents tested. Over the whole deposit, 50 (7%) got an active call. 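Chosen pools sit at both extremes, so both low and high scores count as candidates; some pools appear more than once.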 A reagent listed more than once was tested more than once; the source does not tell the runs apart. No sequences are given here.

Gene,"phospho-ERK z-score, replicate mean",activity call
FGFR2 (GeneID 2263),1.19,inactive
PIP5KL1 (GeneID 138429),-0.38,inactive
CAMK4 (GeneID 814),0.38,inactive
PRKX (GeneID 5613),0.36,inactive
BUB1 (GeneID 699),-0.8,inactive
MKNK2 (GeneID 2872),-0.24,inactive
STK32A (GeneID 202374),-0.7,inactive
NPR2 (GeneID 4882),-0.2,inactive
KSR1 (GeneID 8844),-0.22,inactive
MAP2K3 (GeneID 5606),0.26,inactive
SRP72 (GeneID 6731),-0.26,inactive
CALM1 (GeneID 801),4.05,active
BRSK1 (GeneID 84446),1.19,inactive
BRSK1 (GeneID 84446),-0.82,inactive
MAP2K2 (GeneID 5605),0.13,inactive
MYLK3 (GeneID 91807),0.32,inactive
MLKL (GeneID 197259),0.43,inactive
PKM (GeneID 5315),-0.24,inactive
TWF1 (GeneID 5756),-0.77,inactive
TRIB2 (GeneID 28951),-0.65,inactive
MAP2K4 (GeneID 6416),0.61,inactive
TAF1 (GeneID 6872),-0.12,inactive
MARK1 (GeneID 4139),0.11,inactive
GSK3A (GeneID 2931),-0.09,inactive
CAMKK1 (GeneID 84254),-0.77,inactive
CAMKK1 (GeneID 84254),0.62,inactive
WHR1 (GeneID 8859),0.67,inactive
CMPK1 (GeneID 51727),2.25,inactive
TSSK3 (GeneID 81629),1,inactive
CDKN1C (GeneID 1028),-1.1,inactive
DGUOK (GeneID 1716),2.83,inactive
ULK4 (GeneID 54986),0.3,inactive
CDKN2C (GeneID 1031),-0.74,inactive
CRKL (GeneID 1399),4.2,active
ULK1 (GeneID 8408),1.64,inactive
TRIO (GeneID 7204),-1.73,active
NRBP1 (GeneID 29959),-0.5,inactive
CAMKK2 (GeneID 10645),-0.26,inactive
TEK (GeneID 7010),-0.42,inactive
NME3 (GeneID 4832),-0.32,inactive
MARK3 (GeneID 4140),-1,inactive
CDK17 (GeneID 5128),0.03,inactive
SPHK2 (GeneID 56848),-0.82,inactive
MAP3K14 (GeneID 9020),0.03,inactive
CDK10 (GeneID 8558),0.09,inactive

Next part; the last 10 above are carried over.
Gene,"phospho-ERK z-score, replicate mean",activity call
TRIO (GeneID 7204),-1.73,active
NRBP1 (GeneID 29959),-0.5,inactive
CAMKK2 (GeneID 10645),-0.26,inactive
TEK (GeneID 7010),-0.42,inactive
NME3 (GeneID 4832),-0.32,inactive
MARK3 (GeneID 4140),-1,inactive
CDK17 (GeneID 5128),0.03,inactive
SPHK2 (GeneID 56848),-0.82,inactive
MAP3K14 (GeneID 9020),0.03,inactive
CDK10 (GeneID 8558),0.09,inactive
NEK3 (GeneID 4752),2.71,inactive
TBCK (GeneID 93627),0.87,inactive
STK26 (GeneID 51765),0.23,inactive
TNK1 (GeneID 8711),0.26,inactive
UHMK1 (GeneID 127933),0.76,inactive
EGFR (GeneID 1956),-1.31,active
IP6K1 (GeneID 9807),0.24,inactive
KIT (GeneID 3815),-0.38,inactive
CDK7 (GeneID 1022),-0.28,inactive
SRMS (GeneID 6725),0.49,inactive
ITPKC (GeneID 80271),0.13,inactive
GUCY2C (GeneID 2984),0.46,inactive
GNE (GeneID 10020),1.05,inactive
PAK1 (GeneID 5058),-0.75,inactive
CAMK2A (GeneID 815),-0.22,inactive
ADCK2 (GeneID 90956),-0.76,inactive
NEK2 (GeneID 4751),1.53,inactive
JAK2 (GeneID 3717),-0.52,inactive
CDK5 (GeneID 1020),-1.62,active
PRKAR1B (GeneID 5575),2.74,inactive
DCLK2 (GeneID 166614),1.64,inactive
FGFR4 (GeneID 2264),0.48,inactive
AKT3 (GeneID 10000),-1.31,active
SGK1 (GeneID 6446),-0.34,inactive
FCSK (GeneID 197258),0.38,inactive
CAMK1G (GeneID 57172),0.21,inactive
MAPK11 (GeneID 5600),0.49,inactive
DLG3 (GeneID 1741),-0.15,inactive
MAST1 (GeneID 22983),1.5,inactive
BRD2 (GeneID 6046),-0.51,inactive
EPHB6 (GeneID 2051),0.77,inactive
DYRK1A (GeneID 1859),-1.02,active
CSNK1G1 (GeneID 53944),-1.52,active
NADK (GeneID 65220),-0.88,inactive
CSNK1A1L (GeneID 122011),-0.66,inactive
MAPK6 (GeneID 5597),0.86,inactive
RIOK2 (GeneID 55781),-0.87,inactive
DYRK3 (GeneID 8444),1.02,inactive
PSKH1 (GeneID 5681),-0.24,inactive
IGF2R (GeneID 3482),1.56,inactive
PRKCZ (GeneID 5590),-0.55,inactive
NAGK (GeneID 55577),1.91,inactive
PANK4 (GeneID 55229),-0.4,inactive
CIB2 (GeneID 10518),0.92,inactive
MAPK9 (GeneID 5601),-0.97,inactive
HUNK (GeneID 30811),1.28,inactive
BMPR1A (GeneID 657),3.54,active
PRKAA1 (GeneID 5562),2.84,active
GALK2 (GeneID 2585),-0.3,inactive
TAF1L (GeneID 138474),1.58,inactive
CAMKV (GeneID 79012),-0.37,inactive
SBK1 (GeneID 388228),0.59,inactive
SRPK1 (GeneID 6732),-0.59,inactive
WNK3 (GeneID 65267),-0.22,inactive
ULK3 (GeneID 25989),0.25,inactive
MAGI1 (GeneID 9223),0.57,inactive
PLK4 (GeneID 10733),0.77,inactive
MYLK (GeneID 4638),0.13,inactive
ACVR1C (GeneID 130399),-0.86,inactive
